Binding data for two substances are collected here from publication PMC11087540.

Amino acid sequences for entries named in this document (tags omitted). Residues count along the entry.
UniProt O54819, residues 29-306: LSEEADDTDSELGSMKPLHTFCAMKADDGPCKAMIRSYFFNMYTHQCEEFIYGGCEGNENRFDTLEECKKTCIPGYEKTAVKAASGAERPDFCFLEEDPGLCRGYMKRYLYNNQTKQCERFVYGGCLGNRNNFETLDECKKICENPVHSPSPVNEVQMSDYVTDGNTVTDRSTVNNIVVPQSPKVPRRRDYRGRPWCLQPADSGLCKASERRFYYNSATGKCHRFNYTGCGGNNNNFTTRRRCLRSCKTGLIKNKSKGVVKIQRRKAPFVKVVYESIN

Results are given in words; binding and its absence hold for the method and conditions named. In cells and extracts the contact can be indirect. Some results given as binding are weak or reduced against the parent protein; the word gives no strength.

One experiment addresses T1, Thbd (17-204) segment (UniProt P15306).
T1 sequence: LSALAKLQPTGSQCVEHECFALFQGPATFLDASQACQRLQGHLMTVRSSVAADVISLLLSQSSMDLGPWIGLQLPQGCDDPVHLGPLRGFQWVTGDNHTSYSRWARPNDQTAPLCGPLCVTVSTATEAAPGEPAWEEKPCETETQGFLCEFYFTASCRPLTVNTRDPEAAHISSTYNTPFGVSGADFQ
Kind of experiment: co-IP; HEK293T cells transfected with pcDNA3.1 constructs; lysate supernatant incubated with antibody-coupled Protein A or Protein G beads, washed three times with lysis buffer, Western blot. (A western blot detects proteins with antibodies after separation by electrophoresis.)

A further experiment concerns the target T2, Thbd (205-518) segment (UniProt P15306).
T2 sequence: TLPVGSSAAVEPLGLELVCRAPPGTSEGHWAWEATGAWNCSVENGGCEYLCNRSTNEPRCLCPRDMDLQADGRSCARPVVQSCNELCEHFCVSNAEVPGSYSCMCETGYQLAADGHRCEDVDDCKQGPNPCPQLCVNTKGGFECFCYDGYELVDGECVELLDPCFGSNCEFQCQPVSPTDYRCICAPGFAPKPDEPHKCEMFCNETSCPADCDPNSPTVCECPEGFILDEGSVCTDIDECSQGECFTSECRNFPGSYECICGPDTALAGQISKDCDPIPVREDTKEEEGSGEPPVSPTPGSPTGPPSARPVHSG
Described as above.

The next experiment addresses Thbd (thrombomodulin) (UniProt P15306). Described as above.
Experiment [1] concerns the target Thbd in F4/80+CD169+Vcam-1+ macrophages (mouse (in F4/80+CD169+Vcam-1+ macrophages sorted from mice; endogenous or transfected not stated)) (UniProt P15306). Kind of experiment: co-IP; F4/80+CD169+Vcam-1+ macrophages; lysate supernatant incubated with antibody-coupled Protein A or Protein G beads, washed three times with lysis buffer, Western blot.

Consider “Flag-tagged TFPI (tissue factor pathway inhibitor) (from UniProt O54819 29-306)”, for which the binding entry with Thbd (17-204) segment is “no binding”; with Thbd (205-518) segment, “binds”; with Thbd (thrombomodulin) it was “binds”.

“TFPI in F4/80+CD169+Vcam-1+ macrophages (from UniProt O54819 29-306)”: the binding result in experiment [1] was “binds”.
